# Hit rate of the full screen: of about 330,000 compounds, about 7,700 (2.3%) were called active. Inconclusive means that the source gave no clear call. Such entries were picked first, then a sample of the others. Calls come from the whole dose curve; as a rule, active = well fitted inhibition curve with a large enough effect; inconclusive = small, poorly fitted or top-dose-only effect, or effect the other way; inactive = flat fitted curve, though single readings scatter. Potencies of inconclusive entries are doubtful fits and often do not repeat.
# Test: qHTS screen for small molecules that inhibit ELG1-dependent DNA repair in human embryonic kidney (HEK293T) cells expressing luciferase-tagged ELG1; note: nearly all actives have a fitted effect of over 55% in size
# Details: HEK293T ELG1-luciferase reporter, luminescence, 16 h, DNA damage induced by 5-fluorouridine; activity change, negative = inhibition: at 46.1 µM (top of the series)
# Procedure, shortened: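 Cells (2,000 per well) received 5-fluorouridine plus test compound or DMSO and were incubated 16 hr at 37 °C, 5% CO2. Luciferase activity was read by luminescence 30 min after ONE-Glo addition; signal suppression marked inhibition of damage-induced ELG1 function.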
# % is set by controls: 0 for no effect and ±100 for the full control effect; potency is the fitted concentration of half-maximal effect.
SMILES,Potency,"activity change, negative = inhibition"
COc1ccc(/C=C(\NC(=O)c2cccs2)C(=O)Nc2ccccc2C)cc1OC,"inconclusive: 25.9 µM [inhibitor, single point]",
Cc1sc2nc(SCC(=O)N(C)c3ccccc3)n(C)c(=O)c2c1C,"inconclusive: 18.3 µM [inhibitor, single point]",
Cc1ccc2c(c1)N(CC(=O)N1CCN(c3ccccc3)CC1)C(=O)C(C)O2 (centres undefined),inactive,
CCCCNC(=O)c1onc(CSc2nc3ccccc3[nH]2)c1C(=O)NCCCC,inactive,
CCOc1cc(C(=O)OCC(=O)c2c[nH]c3ccccc23)ccc1OCC(=O)N1CCOCC1,"inconclusive: 4.11 µM [inhibitor, single point]",
Cc1ccc(Cn2ccc(NC(=O)c3noc4c3CCCC4)n2)cc1,"inconclusive: 11.6 µM [activator, partial curve]",
Cc1ccc(-c2c[n+](Cc3ccc(Cl)cc3)c3n2CCC3)cc1,active: 2.59 µM,
Nc1nc2c(Cl)ccc(Cl)c2s1,inactive,
COc1cc(OC)cc(C(=O)NNC(=O)CCc2nc3ccccc3c(=O)[nH]2)c1,inactive,
Cc1cccnc1CN1CCN(C(=O)c2cc(COc3ccc4ncccc4c3)on2)CC1,"inconclusive: 5.8 µM [inhibitor, full curve]",
CCOC(=O)C1=C(CSc2nc(C)ccc2C#N)OC(N)=C(C#N)C1c1cccc(OC)c1OC (centres undefined),"inconclusive: 14.1 µM [activator, single point]",
CC1CN(CC(=O)Nc2cc(S(=O)(=O)N3CCCC3)ccc2Cl)CC(C)O1 (centres undefined),"inconclusive: 29.1 µM [inhibitor, single point]",
COc1ccccc1CCCNC(=O)C1CCC(=O)N(Cc2ccccc2F)C1 (centres undefined),"inconclusive: 18.3 µM [activator, partial curve]",
N#Cc1cn(CCOc2ccccc2F)c2ccccc12,"inconclusive: 32.6 µM [activator, partial curve, poor fit]",
CC(C)CNC(=O)c1nc(-c2ccccc2)n(-c2ccccc2)n1,,inconclusive: 1.38% [activator]
O=C(Nc1ccc2ccccc2c1)c1onc2c1CCCC2,"inconclusive: 1.64 µM [activator, full curve]",
[2H]c1c([2H])c([2H])c(C(=O)c2sc(N3CCCCCC3)nc2-c2ccccc2)c([2H])c1[2H],inactive,
CN(C)c1ccc(NC(=O)c2cccc(N3C(=O)C4C5C=CC(C5)C4C3=O)c2)cc1 (centres undefined),"inconclusive: 7.31 µM [activator, partial curve]",
O=C(CN1C(=O)c2cccnc2Oc2ccc(Cl)cc21)Nc1ccc(F)cc1,"inconclusive: 13 µM [inhibitor, partial curve]",
CC(=O)N(CCN(C)C)c1nc2cc3c(cc2s1)OCCO3,"inconclusive: 18.3 µM [activator, partial curve]",
O=C(COC(=O)c1ccc([N+](=O)[O-])o1)Nc1ncc(Cl)cc1Cl,"inconclusive: 29.1 µM [activator, partial curve, poor fit]",
Cc1ccc(S(=O)(=O)/N=C2/NC(=O)/C(=C\c3ccccc3)S2)cc1,"inconclusive: 2.06 µM [inhibitor, partial curve, poor fit]",
C/C(=N\Nc1nc(N2CCCCC2)nc(N2CCOCC2)n1)c1ccccc1O,"inconclusive: 8.2 µM [inhibitor, partial curve]",

# Part of the list above in order of heavy-atom count, smallest number first.
SMILES,Potency,"activity change, negative = inhibition"
Nc1nc2c(Cl)ccc(Cl)c2s1,inactive,
N#Cc1cn(CCOc2ccccc2F)c2ccccc12,"inconclusive: 32.6 µM [activator, partial curve, poor fit]",
O=C(Nc1ccc2ccccc2c1)c1onc2c1CCCC2,"inconclusive: 1.64 µM [activator, full curve]",
Cc1ccc(-c2c[n+](Cc3ccc(Cl)cc3)c3n2CCC3)cc1,active: 2.59 µM,
Cc1ccc(S(=O)(=O)/N=C2/NC(=O)/C(=C\c3ccccc3)S2)cc1,"inconclusive: 2.06 µM [inhibitor, partial curve, poor fit]",
Cc1ccc(Cn2ccc(NC(=O)c3noc4c3CCCC4)n2)cc1,"inconclusive: 11.6 µM [activator, partial curve]",
[2H]c1c([2H])c([2H])c(C(=O)c2sc(N3CCCCCC3)nc2-c2ccccc2)c([2H])c1[2H],inactive,
CC1CN(CC(=O)Nc2cc(S(=O)(=O)N3CCCC3)ccc2Cl)CC(C)O1 (centres undefined),"inconclusive: 29.1 µM [inhibitor, single point]",
Cc1ccc2c(c1)N(CC(=O)N1CCN(c3ccccc3)CC1)C(=O)C(C)O2 (centres undefined),inactive,
COc1cc(OC)cc(C(=O)NNC(=O)CCc2nc3ccccc3c(=O)[nH]2)c1,inactive,
CN(C)c1ccc(NC(=O)c2cccc(N3C(=O)C4C5C=CC(C5)C4C3=O)c2)cc1 (centres undefined),"inconclusive: 7.31 µM [activator, partial curve]",
Cc1cccnc1CN1CCN(C(=O)c2cc(COc3ccc4ncccc4c3)on2)CC1,"inconclusive: 5.8 µM [inhibitor, full curve]",
CCOc1cc(C(=O)OCC(=O)c2c[nH]c3ccccc23)ccc1OCC(=O)N1CCOCC1,"inconclusive: 4.11 µM [inhibitor, single point]",
CCOC(=O)C1=C(CSc2nc(C)ccc2C#N)OC(N)=C(C#N)C1c1cccc(OC)c1OC (centres undefined),"inconclusive: 14.1 µM [activator, single point]",

# Further results.

SMILES,Potency,"activity change, negative = inhibition"
COc1ccc(C(CCNCc2ccc(OC(C)C)cc2)C(C)C)cc1 (centres undefined),inactive,
NC1=NC(=O)/C(=C\c2ccc(-c3ccc(Cl)cc3)o2)S1,inactive,
Nc1ccc(S(=O)(=O)Nc2nc(-c3ccccc3)cc(-c3ccccc3)n2)cc1,"inconclusive: 16.4 µM [activator, partial curve, poor fit]",
COc1ccc(-c2nn(C)c(=O)c3ccccc23)cc1NC(=O)Cn1nc(-c2ccccc2)c2ccccc2c1=O,"inconclusive: 29.1 µM [inhibitor, single point]",
COc1cccc(CNCCSc2nnnn2C)c1,"inconclusive: 0.206 µM [inhibitor, single point]",
CCN1CCN(C(c2cccnc2)c2c(NC(=O)c3ccco3)sc(C)c2C)CC1 (centres undefined),inactive,
O=C1CC2(CCN(C(=O)c3ccc([N+](=O)[O-])cc3)CC2)Oc2ccccc21,"inconclusive: 3.66 µM [inhibitor, single point]",
Cc1nn(C(=O)c2cc3sccc3[nH]2)c(C)c1C,"inconclusive: 16.4 µM [activator, partial curve]",
Cc1nc(-c2cccnc2)sc1C(=O)Nc1ccc(Cl)cc1,inactive,
COC(=O)C1=C(C)N(Cc2ccccc2)C(=NCc2cc(OC)c(OC)c(OC)c2)N[C@H]1c1ccc(Br)cc1,inactive,
COc1ccc(Nc2nc3ccccc3nc2C)cc1,"inconclusive: 29.1 µM [inhibitor, single point]",
c1ccc(C[C@H]2CN=C(Nc3ccccc3)N2CC2CCCCC2)cc1,inactive,
COc1ccc(C)cc1Cn1c(S(C)(=O)=O)nc2ccccc21,inactive,
CC1=C(C#N)C(Nc2ccc(Cl)cn2)(C(F)(F)F)C(=O)N1 (centres undefined),"inconclusive: 0.461 µM [activator, partial curve, poor fit]",
COc1ccccc1NC(=O)c1ccc(-n2cccn2)nc1,inactive,
O=C(Nc1ccccn1)c1ccc2ccccc2n1,"inconclusive: 2.91 µM [activator, partial curve]",
O=C(CN1C(=O)C(=O)N(Cc2ccco2)C1=O)Nc1ccccc1,"inconclusive: 8.2 µM [activator, partial curve, poor fit]",
CN(c1ccccc1)S(=O)(=O)c1ccc(C(=O)Nc2ccncc2)cc1,"inconclusive: 8.91 µM [inhibitor, partial curve, poor fit]",
COC(=O)C(C)Sc1ncnc2c1nnn2-c1ccc(F)cc1 (centres undefined),"inconclusive: 20.6 µM [activator, partial curve]",
CN(C)c1ccc(C(=O)N2CCCC(CCC(=O)N3CCN(c4ccccn4)CC3)C2)cc1 (centres undefined),"inconclusive: 16.4 µM [inhibitor, single point]",
COc1cc(/C=C/C(O)=C/C(=O)/C=C/c2ccc(O)cc2)ccc1O,"inconclusive: 29.1 µM [inhibitor, single point]",
Cc1cc(C)cc(NC(=O)c2nnn(Cc3cc(C)ccc3C)c2N)c1,inactive,
Cc1ccc(NC(=S)Nc2cc(C)on2)cc1,"inconclusive: 3.26 µM [activator, partial curve]",

SMILES,Potency,"activity change, negative = inhibition"
CCCc1cc(NCc2ccccn2)n2c(nc3ccccc32)c1C#N,"inconclusive: 9.2 µM [inhibitor, partial curve, poor fit]",
CCCCCCCNC(=O)C1(CC2CC(c3cccc(Br)c3)=NO2)CCN(C(=O)OC(C)(C)C)CC1 (centres undefined),inactive,
O=C(CCCCn1c(=O)c2ccccc2n(Cc2ccccc2F)c1=O)NC1CCN(Cc2ccccc2)CC1,"inconclusive: 23.1 µM [inhibitor, single point]",
CC(=O)Nc1cccc(NC(=O)c2cc(-c3cccnc3)nc3ccc(Br)cc23)c1,"inconclusive: 3.98 µM [inhibitor, full curve]",
Cc1ccc(-c2c(C)sc(=NC(=O)c3ccco3)n2C)cc1,"inconclusive: 10.3 µM [activator, partial curve]",
CCN(CC)c1c([N+](=O)[O-])ncn1C,inactive,
CCOC(=O)c1c(NC(=O)CSC2=NN3CCCC(=O)N=C3S2)sc2c1CCCCC2,"inconclusive: 32.6 µM [inhibitor, single point]",
O=C(Nc1ccccc1C(=O)Nc1nnc(C(F)(F)F)s1)c1ccccc1,active: 4.61 µM,
CC(C)Oc1ccc(CCC(=O)NNC(=O)c2ccccc2C(=O)O)cc1,"inconclusive: 0.206 µM [activator, full curve, poor fit]",
N#Cc1c(-c2ccccc2)cc(-c2ccccc2)nc1SCc1nnc(-c2ccccc2)o1,"inconclusive: 5.8 µM [inhibitor, full curve]",
Cc1csc(NC(=O)c2cc3ccccc3o2)n1,"inconclusive: 0.92 µM [activator, full curve]",
COc1cccc(C(=O)NCC2CCCN(C3CCCCC3)C2)c1OC (centres undefined),inactive,
CC1CCN(S(=O)(=O)c2ccc(NC(=O)C3CC(=O)N(c4ccccc4)C3)cc2)CC1 (centres undefined),"inconclusive: 16.4 µM [inhibitor, single point]",
CC1(O)CC(c2ccc(Cl)cc2)=NN1C(=O)c1ccc(Cl)cc1 (centres undefined),inactive,
CN(c1ccccc1)S(=O)(=O)c1ccc(C(=O)NNC(=O)c2ccccc2F)cc1,inactive,
Cc1ccc(OCC(=O)NCCNC(=O)c2ccccn2)cc1,inactive,
CCc1ccc(C2NC(C(=O)O)CS2)cc1 (centres undefined),"inconclusive: 23.1 µM [activator, single point]",
O=C(O)c1cnn(-c2nc(-c3ccc(Br)cc3)cs2)c1C(F)(F)F,"inconclusive: 7.3 µM [activator, partial curve]",
O=C(COC(=O)c1cc(Cl)nc(Cl)c1)NC1CCCCCC1,"inconclusive: 5.8 µM [activator, partial curve]",
Cc1ccc(-c2nc3ccccc3n2C)o1,"inconclusive: 3.66 µM [activator, partial curve]",
O=C(CNS(=O)(=O)c1cccs1)N1CCCCC1,"inconclusive: 18.3 µM [activator, single point]",
N#CCSc1nc2c(cc1C#N)CCCC2,"inconclusive: 16.4 µM [activator, partial curve, poor fit]",
COc1ccc(NC(=O)CN(C)C(=O)c2cccc(S(=O)(=O)N3CC4(C)CC3CC(C)(C)C4)c2)cc1 (centres undefined),inactive,

# Ordered by count of non-hydrogen atoms (low to high): some entries from above.
SMILES,Potency,"activity change, negative = inhibition"
N#Cc1c(-c2ccccc2)cc(-c2ccccc2)nc1SCc1nnc(-c2ccccc2)o1,"inconclusive: 5.8 µM [inhibitor, full curve]",
COc1ccc(NC(=O)CN(C)C(=O)c2cccc(S(=O)(=O)N3CC4(C)CC3CC(C)(C)C4)c2)cc1 (centres undefined),inactive,
O=C(CCCCn1c(=O)c2ccccc2n(Cc2ccccc2F)c1=O)NC1CCN(Cc2ccccc2)CC1,"inconclusive: 23.1 µM [inhibitor, single point]",

# From PubChem BioAssay AID504467 (National Center for Advancing Translational Sciences (NCATS), 2011)
